Results: patent US20060189528A1
Results are given in words; binding and its absence hold for the method and conditions named. Some entries that bind do so weakly or less than the wild type. For part of these data: Sequences can lack the tags named with a protein.

T1: RANKL (human) (UniProt O14788)
T1 sequence (looked up): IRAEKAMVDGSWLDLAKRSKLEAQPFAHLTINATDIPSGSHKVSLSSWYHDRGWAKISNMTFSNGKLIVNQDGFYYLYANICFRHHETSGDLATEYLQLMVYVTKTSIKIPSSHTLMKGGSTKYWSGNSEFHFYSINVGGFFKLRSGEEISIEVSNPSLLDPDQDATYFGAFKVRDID


What was measured:
RANKL (human) [1] = target: T1, RANKL (human); assay: ELISA on coated RANKL, Fc-linked dimer
RANKL (human) [2] = target: T1, RANKL (human); assay: ELISA, wells coated with RANKL at 5 ug/mL, dimeric Fc-linked protein in doubling dilutions from about 10 nM, anti-FLAG detection, A450nm
RANKL (human) [3] = target: T1, RANKL (human); assay: ELISA (Table 1), Fc-linked dimer

| Binder | binding (RANKL (human) [1]) | binding (RANKL (human) [2]) | binding (RANKL (human) [3]) |
| --- | --- | --- | --- |
| OPG(22-194).Fc wild type (Fc fusion, not shown: a dimerising Fc or GST; small tags and cut ends) ETFPPKYLHYDEETSHQLLCDKCPPGTYLKQHCTAKWKTVCAPCPDHYYTDSWHTSDECLYCSPVCKELQYVKQECNRTHNRVCECKEGRYLEIEFCLKHRSCPPGFGVVQAGTPERNTVCKRCPDGFFSNETSSKAPCRKHTNCSVFGLLLTQKGNATHDNICSGNSESTQK | binds | binds | – |
| OVP I115E (Fc fusion, not shown: a dimerising Fc or GST; small tags and cut ends) ETFPPKYLHYDEETSHQLLCDKCPPGTYLKQHCTAKWKTVCAPCPDHYYTDSWHTSDECLYCSPVCKELQYVKQECNRTHNRVCECKEGRYLEEEFCLKHRSCPPGFGVVQAGTPERNTVCKRCPDGFFSNETSSKAPCRKHTNCSVFGLLLTQKGNATHDNICSGNSESTQK | – | – | binds |
| OVP I115D (Fc fusion, not shown: a dimerising Fc or GST; small tags and cut ends) ETFPPKYLHYDEETSHQLLCDKCPPGTYLKQHCTAKWKTVCAPCPDHYYTDSWHTSDECLYCSPVCKELQYVKQECNRTHNRVCECKEGRYLEDEFCLKHRSCPPGFGVVQAGTPERNTVCKRCPDGFFSNETSSKAPCRKHTNCSVFGLLLTQKGNATHDNICSGNSESTQK | – | binds | binds |
| OVP I115G (Fc fusion, not shown: a dimerising Fc or GST; small tags and cut ends) ETFPPKYLHYDEETSHQLLCDKCPPGTYLKQHCTAKWKTVCAPCPDHYYTDSWHTSDECLYCSPVCKELQYVKQECNRTHNRVCECKEGRYLEGEFCLKHRSCPPGFGVVQAGTPERNTVCKRCPDGFFSNETSSKAPCRKHTNCSVFGLLLTQKGNATHDNICSGNSESTQK | – | binds | binds |
| OVP I115A (Fc fusion, not shown: a dimerising Fc or GST; small tags and cut ends) ETFPPKYLHYDEETSHQLLCDKCPPGTYLKQHCTAKWKTVCAPCPDHYYTDSWHTSDECLYCSPVCKELQYVKQECNRTHNRVCECKEGRYLEAEFCLKHRSCPPGFGVVQAGTPERNTVCKRCPDGFFSNETSSKAPCRKHTNCSVFGLLLTQKGNATHDNICSGNSESTQK | – | binds | – |
| OVP I115L (Fc fusion, not shown: a dimerising Fc or GST; small tags and cut ends) ETFPPKYLHYDEETSHQLLCDKCPPGTYLKQHCTAKWKTVCAPCPDHYYTDSWHTSDECLYCSPVCKELQYVKQECNRTHNRVCECKEGRYLELEFCLKHRSCPPGFGVVQAGTPERNTVCKRCPDGFFSNETSSKAPCRKHTNCSVFGLLLTQKGNATHDNICSGNSESTQK | – | binds | – |

Next, values leading:

| binding (RANKL (human) [1]) | binding (RANKL (human) [2]) | binding (RANKL (human) [3]) | Binder |
| --- | --- | --- | --- |
| – | binds | – | OVP I115S (Fc fusion, not shown: a dimerising Fc or GST; small tags and cut ends) ETFPPKYLHYDEETSHQLLCDKCPPGTYLKQHCTAKWKTVCAPCPDHYYTDSWHTSDECLYCSPVCKELQYVKQECNRTHNRVCECKEGRYLESEFCLKHRSCPPGFGVVQAGTPERNTVCKRCPDGFFSNETSSKAPCRKHTNCSVFGLLLTQKGNATHDNICSGNSESTQK |
| – | – | binds | OVP I115N (Fc fusion, not shown: a dimerising Fc or GST; small tags and cut ends) ETFPPKYLHYDEETSHQLLCDKCPPGTYLKQHCTAKWKTVCAPCPDHYYTDSWHTSDECLYCSPVCKELQYVKQECNRTHNRVCECKEGRYLENEFCLKHRSCPPGFGVVQAGTPERNTVCKRCPDGFFSNETSSKAPCRKHTNCSVFGLLLTQKGNATHDNICSGNSESTQK |
| – | binds | – | OVP I115M, R122G (Fc fusion, not shown: a dimerising Fc or GST; small tags and cut ends) ETFPPKYLHYDEETSHQLLCDKCPPGTYLKQHCTAKWKTVCAPCPDHYYTDSWHTSDECLYCSPVCKELQYVKQECNRTHNRVCECKEGRYLEMEFCLKHGSCPPGFGVVQAGTPERNTVCKRCPDGFFSNETSSKAPCRKHTNCSVFGLLLTQKGNATHDNICSGNSESTQK |
| – | binds | – | OVP I115T, K51R, R111H (Fc fusion, not shown: a dimerising Fc or GST; small tags and cut ends) ETFPPKYLHYDEETSHQLLCDKCPPGTYLRQHCTAKWKTVCAPCPDHYYTDSWHTSDECLYCSPVCKELQYVKQECNRTHNRVCECKEGHYLETEFCLKHRSCPPGFGVVQAGTPERNTVCKRCPDGFFSNETSSKAPCRKHTNCSVFGLLLTQKGNATHDNICSGNSESTQK |
| – | – | binds | OVP I115M (Fc fusion, not shown: a dimerising Fc or GST; small tags and cut ends) ETFPPKYLHYDEETSHQLLCDKCPPGTYLKQHCTAKWKTVCAPCPDHYYTDSWHTSDECLYCSPVCKELQYVKQECNRTHNRVCECKEGRYLEMEFCLKHRSCPPGFGVVQAGTPERNTVCKRCPDGFFSNETSSKAPCRKHTNCSVFGLLLTQKGNATHDNICSGNSESTQK |
| – | binds | – | OVP I115R (Fc fusion, not shown: a dimerising Fc or GST; small tags and cut ends) ETFPPKYLHYDEETSHQLLCDKCPPGTYLKQHCTAKWKTVCAPCPDHYYTDSWHTSDECLYCSPVCKELQYVKQECNRTHNRVCECKEGRYLEREFCLKHRSCPPGFGVVQAGTPERNTVCKRCPDGFFSNETSSKAPCRKHTNCSVFGLLLTQKGNATHDNICSGNSESTQK |
